pKd: −log10 of the molar value. The exact form of at least one protein or probe is not confirmed. For some of these results: The direction of at least one scale is not stated here.
What was measured:
Assay in all cases: EMSA
Conditions in all cases: recombinant protein; protein details: His-tag removed by TEV
[1] = test system: DNA gyrase GyrA-4R+ holoenzyme C716R,P762R,S813R,I823R (Escherichia coli)
[2] = test system: DNA gyrase GyrA-C716R holoenzyme (Escherichia coli)
[3] = test system: DNA gyrase GyrA-R766A holoenzyme (Escherichia coli)
[4] = test system: DNA gyrase WT holoenzyme (GyrA2GyrB2) (Escherichia coli)

Sequence “GGGAAACCTGTCGTGCCAGCTGCATTAATGAATCGGCCAACGCGCGGGGAGAGGCGGTTTGCGTATTGGGCGCTCTTCCGCTTCCTCGCTCACTGACTCGCTGCGCTCGGTCGTTCGGCTGCGGCGAGCGGTATCAGCTCACTCAAAGGCGGTAATACGGTTATCCACAGAATCAGGGGATAACGCAGGAAAGAACATGT (double strand) [EMSA DNA substrate (about 200 bp)]” has a binding signal (fold difference from WT Kd) [1] of less than 4, a binding signal (fold difference from WT Kd) [2] of less than 4 and a binding signal (fold weaker than WT) [3] of 20. For the same sequence, the pKd [4] was 8.00.
